Results: PubChem BioAssay AID2551 (National Center for Advancing Translational Sciences (NCATS), 2010)
The whole screen tested about 310,000 compounds, of which about 17,000 (5.5%) were called active. The shares of active, inactive and inconclusive entries below differ from those in the screen. Calls come from the whole dose curve; as a rule, active = well fitted inhibition curve with a large enough effect; inconclusive = small, poorly fitted or top-dose-only effect, or effect the other way; inactive = no such curve, though single readings can be large or run the other way. A potency beside an inconclusive call is a rough fit, not a confirmed value.

By UniProt entry, the sequences of proteins in these tests, tags left out. Where a name states a change or a piece, a line headed by the entry shows the natural chain unless it says otherwise.
UniProt P51450: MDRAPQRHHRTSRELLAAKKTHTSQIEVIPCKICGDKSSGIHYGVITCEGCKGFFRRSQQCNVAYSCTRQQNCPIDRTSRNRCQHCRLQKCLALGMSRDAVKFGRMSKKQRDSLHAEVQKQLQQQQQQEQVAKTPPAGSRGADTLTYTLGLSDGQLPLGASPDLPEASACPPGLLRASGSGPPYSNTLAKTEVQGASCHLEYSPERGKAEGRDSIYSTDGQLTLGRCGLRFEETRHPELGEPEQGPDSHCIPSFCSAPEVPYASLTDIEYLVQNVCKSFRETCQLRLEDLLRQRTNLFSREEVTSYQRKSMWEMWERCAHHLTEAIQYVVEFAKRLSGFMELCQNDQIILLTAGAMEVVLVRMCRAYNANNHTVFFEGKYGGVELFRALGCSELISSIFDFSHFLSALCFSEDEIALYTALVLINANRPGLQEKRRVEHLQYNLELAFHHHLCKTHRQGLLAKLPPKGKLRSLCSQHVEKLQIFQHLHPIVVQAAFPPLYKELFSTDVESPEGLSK

Molecular target: Nuclear receptor ROR-gamma (Mus musculus) (UniProt P51450)
Assay: qHTS for inhibitors of ROR gamma transcriptional activity; note: nearly all actives have a fitted effect of over 60% in size
Settings: Drosophila S2 Gal4-RORgamma UAS-luciferase reporter, 20 h; series mostly up to 53.6 µM
In short: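 Luminescence from a UAS-regulated Photinus luciferase reporter in stably transfected Drosophila Schneider cells is measured; decreased signal marks ROR gamma inhibition. Fusion expression is induced by 700 uM copper sulfate for 20 hr.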
Potency is the fitted concentration of half-maximal effect.

| Structure (SMILES) | Potency |
| --- | --- |
| CCOC(=O)c1cn(CC#N)c2cc(F)c(F)cc2c1=O | inactive |
| COC(=O)c1sccc1NC(=O)c1sccc1C | inactive |
| Cc1nnc(SCc2nc3scc(-c4ccccc4)c3c(=O)[nH]2)s1 | inconclusive: 2.82 µM [activator, partial curve] |
| CCOc1cc(/C=N/NC(=O)COc2nc(C)cc(COC)c2C#N)ccc1O | inconclusive: 8.91 µM [activator, partial curve] |
| CO[C@]12C[C@@H](COC(=O)c3cncc(Br)c3)CN(C)[C@@H]1Cc1cn(C)c3cccc2c13 | inactive |
| CCc1ccc(Nc2cc(=O)n(C3CCCCC3)c(=O)[nH]2)cc1 | inconclusive: 7.08 µM [activator, full curve, poor fit] |
| Cc1ccccc1C1CCCN(C(=O)c2cc(COc3c(F)cccc3F)on2)C1 (stereo not given) | inconclusive: 25.1 µM [activator, single point] |
| CC1CCCCC1NC(=O)CCCn1c(=S)[nH]c2ccccc2c1=O (stereo not given) | inconclusive: 5.01 µM [inhibitor, partial curve] |
| O=c1[nH]c(/C=C\c2ccc(O)c(O)c2)nc(O)c1[N+](=O)[O-] | inactive |
| COc1ccc(-c2onc(C)c2-c2cnn(-c3ccccc3)c2)c(O)c1C | inconclusive: 17.8 µM [activator, single point] |
| Cc1c(NC(=O)c2cc3ccccc3oc2=O)c(=O)n(-c2ccccc2)n1C | inconclusive: 15.8 µM [activator, single point] |
| CCOc1ccccc1C(=O)Oc1cc(C)[nH]c(=O)c1[N+](=O)[O-] | inactive |
| Cc1ccc(C)c(CN2CCC(CNC(=O)Nc3ccc(F)c(Cl)c3)CC2)c1 | inactive |
| Cc1ccc(-c2csc(=Nc3cccnc3)n2CCCn2ccnc2)cc1C | inconclusive: 11.2 µM [activator, partial curve] |
| O=C(c1cc[n+]([O-])cc1)N1CCCC(N2CCN(c3cccc(C(F)(F)F)c3)CC2)C1 (stereo not given) | active: 1.26 µM |
| CC(C)N(Cc1nc(-c2ccc(Cl)cc2)no1)C(=O)/C=C/c1ccccc1 | inconclusive: 20 µM [activator, single point] |
| COc1ccc(C)cc1N/C(N)=N/c1nc(C)cc(C)n1 | inactive |
| COC(=O)c1cc(-c2ccc(S(=O)(=O)N3CCCC3)cc2)c(C(F)(F)F)s1 | inconclusive: 35.5 µM [activator, single point] |
| Oc1c(CN2CCc3ccccc3C2)cc(Cl)c2cccnc12 | active: 0.794 µM |
| Cc1nn2c(nc(N3CCOCC3)c3ccccc32)c1C=C(C#N)C#N | inconclusive: 11.2 µM [activator, partial curve, poor fit] |

Part of the list above, reformatted:
Structure (SMILES) | Potency
Cc1nnc(SCc2nc3scc(-c4ccccc4)c3c(=O)[nH]2)s1 | inconclusive: 2.82 µM [activator, partial curve]
CCOc1cc(/C=N/NC(=O)COc2nc(C)cc(COC)c2C#N)ccc1O | inconclusive: 8.91 µM [activator, partial curve]
CO[C@]12C[C@@H](COC(=O)c3cncc(Br)c3)CN(C)[C@@H]1Cc1cn(C)c3cccc2c13 | inactive
CCc1ccc(Nc2cc(=O)n(C3CCCCC3)c(=O)[nH]2)cc1 | inconclusive: 7.08 µM [activator, full curve, poor fit]
